Source: patent publication US20220025373
Construct, isoform or probe ends are uncertain for at least one entry. For some of these results: A negative result means that nothing was seen under these conditions.

How the values were obtained:
[1] = system: Thrombin (in pooled human plasma) (Homo sapiens); test: inhibition of the protein; conditions: 2'-F at all C and U, protein in an extract, protein details: pooled human plasma, George King Bio-Medical
[2] = target: Bovine serum albumin (BSA) (Bos taurus) (UniProt P02769); test: EMSA; conditions: 2'-F at all C and U; 37 C 1 h
Factor Xa = test: EMSA; conditions: 2'-F at all C and U; 37 C 1 h
Thrombin = test: EMSA; conditions: 2'-F at all C and U; 5 pmol RNA + 25 pmol protein, 37 C 1 h
Factor IXa = test: EMSA; conditions: 2'-F at all C and U; 37 C 1 h
[3] = aPTT clotting time in pooled human plasma, range given for all modified two-aptamer origami, dose not given here

Row | Sequence | binding result [2] | binding result (Factor Xa) | binding result (Thrombin) | also measured
1 | GGGAGAUCGAGCGACUUCCGACUUCGGUCGGGAGUCGGGCUAGUCAUCGGGAACAAAGCUGAAGUACUUACCCGAUGAUUAGCCGCUGGUGAAGCCUCCACGCCAGCCUCGGUCUCCCGCAGUAGGAUCGGACUGAAGGAGGCACGGUCCCAGCCGAAGUGUCUGGCGGUCGAUCACACAGUUCAAACGUAAUAAGCCAAUGUACGAGGCAGACGACUCGCCAGGCACUUUGGCUGCUAGACUGGCUGGCUUCGGCCAGCUAGUUUAGGAUUCUAUUGC [2HF-RNA-12NN] |  |  |  | functional effect of the aptamer [1, 3]: active
2 | GGGAGAUCGAGCGACUUCCGACGGGAACAAAGCUGAAGUACUUACCCGUCGGGAGUCGGGCUAGUCAUCUUCGGAUGAUUAGCCGCUGGUGAAGCCUCCACGCCAGCCUCGGUCUCCCGCAGUAGGAUCGGACUGAAGGAGGCACGGUCCCAGCCGAAGUGUCUGGCGGUCGAUCACACAGUUCAAACGUAAUAAGCCAAUGUACGAGGCAGACGACUCGCCAGGCACUUUGGCUGCUAGACUGGCUGGCUUCGGCCAGCUAGUUUAGGAUUCUAUUGC [2HF-RNA-1N2N] |  |  |  | functional effect of the aptamer [1, 3]: active
3 | GGGAACAAAGCUGAAGUACUUACCCACCUUACCACUCCACCUCACUCACCUAUUACGGCGGUCGAUCACACAGUUCAAACGUAAUAAGCCAAUGUACGAGGCAGACGACUCGCC [Fss12] |  |  |  | functional effect of the aptamer ([1]; aPTT, 500 nM, higher than free aptamers, lower than 2HF-RNA-2NN1): active
4 | GGGAGAUCGAGCGACUUCCGACUCUGGCGGUCGAUCACACAGUUCAAACGUAAUAAGCCAAUGUACGAGGCAGACGACUCGCCAGAGUCGGGAGUCGGGCUAGUCAUCAGGCACGGGAACAAAGCUGAAGUACUUACCCGUGCCUGAUGAUUAGCCGCUGGUGAAGCCUCCACGCCAGCCUCGGUCUCCCGCAGUAGGAUCGGACUGAAGGAGGCACGGUCCCAGCCGAAGUGUCUUGCGGGAACAAAGCUGAAGUACUUACCCGCAAGGCACUUUGGCUGCUAGACUGGCUGGCGGCGGUCGAUCACACAGUUCAAACGUAAUAAGCCAAUGUACGAGGCAGACGACUCGCCGCCAGCUAGUUUAGGAUUCUAUUGC [2HF-RNA-2211] | no binding | no binding | binds | functional effect of the aptamer ([1]; aPTT clotting time at 400 nM, coagulometer maximum): > 999 s
5 | GGAAAUGAUGCCGAGUUGACGCUUCGGCGUCAGCUCGCCCUGUGGCCUAGUUCGCUAGGUCACAGCCGACCAUUGCGUUUCGACGCAGUGGUCACAUCUUGGCGUUCGCGCCAGGAUGUCUCGCCCAAUUCCGUAGGGCGAGGGGACCCAAAUCCCUAGGGUCGGUAGCCAAAUCCAGAGGCUAGCAUUAUUUCCGAUCUAGGAUCGCGUUGAGAACUGGAUACUCAACCGUGGCAUAAAGGGAUAAUGCCAAGCGGUAAACGGAAAACCGCUCAGCCGAAGUGUCUUGCGGGAACAAAGCUGAAGUACUUACCCGCAAGGCACUUUGGCUGCGUGGCGUUACAGUUCGCUGUGACGCCAGCCACGCGUCGUAUUCGUACGGCGCGUGCUAGACUGGCUGGCGGCGGUCGAUCACACAGUUCAAACGUAAUAAGCCAAUGUACGAGGCAGACGACUCGCCGCCAGCUAGUUUAGGAUUCUAGAUC [4HF-RNA-2NN1] | no binding | no binding | binds | binding result (Factor IXa): no binding
6 | GGGAGAUCGAGCGACUUCCGACUUCGGUCGGGAGUCGGGCUAGUCAUCUUCGGAUGAUUAGCCGCUGGUGAAGCCUCCACGCCAGCCUCGGUCUCCCGCAGUAGGAUCGGACUGAAGGAGGCACGGUCCCAGCCGAAGUGUCUUGCGGGAACAAAGCUGAAGUACUUACCCGCAAGGCACUUUGGCUGCUAGACUGGCUGGCGGCGGUCGAUCACACAGUUCAAACGUAAUAAGCCAAUGUACGAGGCAGACGACUCGCCGCCAGCUAGUUUAGGAUUCUAUUGC [2HF-RNA-2NN1] |  |  |  | functional effect of the aptamer ([1]; aPTT clotting time in pooled human plasma, range for all modified two-aptamer origami, about 80% reversed by DNA antidote, dose not given here): active
7 | GGAAAUGAUGCCGAGUUGACGCUUCGGCGUCAGCUCGCCCUGUGGCCUAGUUCGCUAGGUCACAGACAUCUUGGCGUUCGCGCCAGGAUGUCUCGCCCAAUUCCGUAGGGCGAGGGUAGCCAAAUCCAGAGGCUAGCAUUAUUUCCGAUCUAGGAUCGCGUUGAGAACUGGAUACUCAACAGCGGUAAACGGAAAACCGCUCAGCCGAAGUGUCUUGCGGGAACAAAGCUGAAGUACUUACCCGCAAGGCACUUUGGCUGGCCACGCGUCGUAUUCGUACGGCGCGUGCUAGACUGGCUGGCGGCGGUCGAUCACACAGUUCAAACGUAAUAAGCCAAUGUACGAGGCAGACGACUCGCCGCCAGCUAGUUUAGGAUUCUAGAUC [3HF-RNA-2NN1] | no binding | no binding | binds | binding result (Factor IXa): no binding
